Experiment [1] concerns the target human plasma fibronectin (human). Description: ELISA; antibody displacement assay; plates coated with 10 µg/mL fibronectin, blocked with 5% human plasma; 1.5 µg/mL his-tagged prodomain alone or with antibodies (mouse IgG1, human IgG4 isotype controls, 10A10, HC5LC4), 1 h at room temperature; detected with biotinylated α-His antibody and streptavidin HRP; both purified. Background: In an ELISA, binding on a coated surface is turned into a signal by an enzyme label.

Experiment [2] shares this target. Description: ELISA; solid phase enzyme immunoassay; medium binding plates coated with 10 µg/mL fibronectin, type I or type III collagen overnight at room temperature in PBS, blocked with 1% BSA; His tagged rPro in serial dilution starting at 10 µg/mL, 1 h at room temperature; detected with biotinylated α-His antibody and streptavidin HRP; both purified.

No constants are given. Whether binding was seen depends on the method and setting. A result given as binding can be weak or reduced; the word gives no strength.

B1: Recombinant prodomain (rPro) of N-cadherin, amino acids 26-159 (domain or fragment, UniProt P19022 26-159)
chain: SGEIALCKTGFPEDVYSAVLSKDVHEGQPLLNVKFSNCNGKRKVQYESSEPADFKVDEDGMVYAVRSFPLSSEHAKFLIYAQDKETQEKWQVAVKLSLKPTLTEESVKESAEVEEIVFPRQFSKHSGHLQRQKR
As to B1, the binding result in experiment [1] and in experiment [2] was “binds” in each case.

Values taken from PMC8750447.
